Legend:
[1] = tested on: Halotydeus destructor resistant population (synthetic pyrethroid resistance); assay: Coated plastic vial bioassay, redlegged earth mite, resistant population; assay type: in vivo; settings: 24 hours exposure
Experimental: (§1) The test compositions included 0.1% Tween 20 non-ionic surfactant to aid the spread of insecticides when coating plastic vials. This concentration of Tween 20 has been previously shown to have no toxic effect on H. destructor. For each insecticide concentration tested, 3, 10, 30, 100, 300, 1000, 3000 and 10000 mg a.i./L (ppm), approximately 10 mL of solution was poured into a 15 mL plastic vial and swirled to ensure a complete coating, with excess liquid removed. Eight vials were coated per concentration and were left to dry overnight. Control vials were treated in the same way but with water used in place of test composition.
Eight susceptible H. destructor mites were then placed into each vial along with a leaf of common vetch (Vicia sativa). The leaf was added to provide food and increase humidity. Vials were then sealed with a lid and placed at 18° C. After 4, 6, 8 and 24 hours of exposure, the mites were scored as alive (moving freely), incapacitated (inhibited movement), or dead (no movement over a 5 second period).
The resistant population of H. destructor was collected from a lucerne paddock in the Upper South-East district of South Australia, where resistance to synthetic pyrethroids was confirmed in late 2016.
The data produced in the assays were assessed for concentrations that caused 50, 90 and 99% mortality (lethal concentration, LC), together with 95% confidence intervals (CIs) and were estimated from observations of mortality after 24 hours exposure using a binomial logistic regression (Robertson & Preisler, 1992, Pesticide Bioassays with Arthropods. CRC: Boca Raton; Venables & Ripley, 2002, Modern Applied Statistics with S. Springer: New York). Population differences were tested by comparing the change in model deviance with and without the population factor (different regression intercepts for each population). Differences in regression slopes between populations were tested by comparing the change in model deviance with and without the population×dose interaction term. […]

[2] = tested on: Halotydeus destructor susceptible population; assay: Coated plastic vial bioassay, redlegged earth mite, susceptible population; assay type: in vivo; settings: 24 hours exposure
Experimental: The efficacy of flavesone against H. destructor was assessed using the glass vial technique developed by Hoffmann et al. (1997, Exp. Appl. Acarol., 21:151-162), adapted for plastic vials. A susceptible population of mites was collected from capeweed (Arctotheca calendula) at a Victorian site (37° 40′33″S, 145° 07′ 45″E) that had no known history of insecticide application. Following collection, samples were stored in small plastic containers with leaf material and paper towel to absorb excess moisture. Containers were kept at 4° C. prior to testing.
as §1
Eight susceptible H. destructor mites were then placed into each vial along with a leaf of common vetch (Vicia sativa). The leaf was added to provide food and increase humidity. Vials were then sealed with a lid and placed at 18° C. After 4, 6, 8 and 24 hours of exposure, the mites were scored as alive (moving freely), incapacitated (inhibited movement), or dead (no movement over a 5 second period). […]
The data produced in the assays were assessed for concentrations that caused 50, 90 and 99% mortality (lethal concentration, LC), together with 95% confidence intervals (CIs) and were estimated from observations of mortality after 24 hours exposure using a binomial logistic regression (Robertson & Preisler, 1992, Pesticide Bioassays with Arthropods. CRC: Boca Raton; Venables & Ripley, 2002, Modern Applied Statistics with S. Springer: New York). […]

[3] = tested on: M. persicae (green peach aphid) population resistant to carbamates and synthetic pyrethroids; assay: Leaf dip bioassay, green peach aphid, resistant population; assay type: in vivo, Myzus persicae; settings: 96 hours exposure
Experimental: (§2) Each colony was maintained separately on bok choi plants ([…]) within an exclusion cage in a constant temperature room at 24° C. with a photoperiod of 16:8 LD.
(§3) Laboratory bioassays were used to determine the efficacy of flavesone against M. persicae following the leaf dip method described in Moores et al. (1994, Pesticide Biochemistry and Physiology, 49, 114-120). A pilot study was first conducted which confirmed that the leaf dip method was appropriate to elicit a clear dose response for Flavocide 500EW against M. persicae, and to determine the appropriate rate range and timing of mortality assessments (scored at 24, 48, 72 & 96 hours) (data not shown).
(§4) Bioassays were then conducted to assess the efficacy of flavesone against a susceptible and resistant population of M. persicae, and to calculate LC values. The efficacy of a conventional insecticide, pirimicarb, was tested for comparison. […]
(§5) After aphid introduction, each petri dish was inverted onto a lid containing a 25 mm diameter filter paper to control humidity. […] At 48 & 96 hours, aphids were scored as alive (vibrant and moving freely), dead (not moving over a 5 second period), or incapacitated (inhibited movement).
(§6) Dose-response curves were generated by plotting percentage mortality against log concentration. Mortality data was analysed using a logistic regression model with random effects. […]

[4] = tested on: M. persicae (green peach aphid) insecticide-susceptible population; assay: Leaf dip bioassay, green peach aphid, susceptible population; assay type: in vivo, Myzus persicae; settings: 96 hours exposure
Experimental: as §2, §3, §4, §5, §6

| SMILES | Regression slope coeffeicient (±SE) [1] | Regression slope coeffeicient (±SE) [2] | Regression slope coefficients (±SE) [3] | Regression slope coefficients (±SE) [4] |
| --- | --- | --- | --- | --- |
| Cc1c(COC(=O)[C@@H]2[C@H](/C=C(\Cl)C(F)(F)F)C2(C)C)cccc1-c1ccccc1 (racemic) [Bifenthrin, bifenthrin] | 0.27 (0.05) | 0.54 (0.05) |  |  |
| CCOP(=S)(OCC)Oc1nc(Cl)c(Cl)cc1Cl [Chlorpyrifos, chlorpyrifos, reference compound] | 1.27 (0.18) | 1.68 (0.26) |  |  |
| CC(C)C(=O)C1C(=O)C(C)(C)C(=O)C(C)(C)C1=O [Flavesone, 1-isobutyroyl-3,3,5,5-tetramethylcyclohexane-2,4,6-trione] | 1.78 (0.17) | 1.75 (0.17) | 2.38 | 2.77 |
| Cc1nc(N(C)C)nc(OC(=O)N(C)C)c1C [Pirimicarb, pirimicarb, reference compound] |  |  | −0.13 | 1.52 |
